Substitutions are numbered along the chain they refer to. Names may count otherwise. No constants are given. Whether binding was seen depends on the method and setting. Some binding calls cover weakened binding; strength is not graded here. Each block holds one binder with its values, some of them ahead of it.
Columns and labels:
Test in all cases: AP-ligand binding, COS-7
[1] = biological target: T1, human NgR1 alanine mutant 256, 259, 284 (human) (UniProt Q9BZR6)
T1 sequence: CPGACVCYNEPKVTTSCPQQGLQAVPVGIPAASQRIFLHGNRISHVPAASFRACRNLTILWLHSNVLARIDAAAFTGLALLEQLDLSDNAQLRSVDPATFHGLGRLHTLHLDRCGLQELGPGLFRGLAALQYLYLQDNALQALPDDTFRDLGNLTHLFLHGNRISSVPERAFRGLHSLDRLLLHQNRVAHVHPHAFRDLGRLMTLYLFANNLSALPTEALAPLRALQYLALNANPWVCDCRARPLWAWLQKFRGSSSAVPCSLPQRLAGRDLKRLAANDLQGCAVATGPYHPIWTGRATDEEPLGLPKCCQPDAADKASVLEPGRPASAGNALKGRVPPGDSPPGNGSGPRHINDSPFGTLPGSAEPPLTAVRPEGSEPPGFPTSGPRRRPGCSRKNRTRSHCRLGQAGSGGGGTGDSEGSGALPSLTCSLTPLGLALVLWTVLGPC

[2] = biological target: T2, human NgR1 alanine mutant 292, 296, 297, 300 (human) (UniProt Q9BZR6)
T2 sequence: T1 sequence with A230R, A233D, A258E, R266A, R270A, D271A, R274A

[3] = biological target: T3, human NgR1 alanine mutant 250 (human) (UniProt Q9BZR6)
T3 sequence: T1 sequence with R224A, A230R, A233D, A258E

[4] = biological target: T4, human NgR1 alanine mutant 36, 38 (human) (UniProt Q9BZR6)
T4 sequence: T1 sequence with E10A, K12A, A230R, A233D, A258E

[5] = biological target: T5, human NgR1 alanine mutant 237, 256, 284 (human) (UniProt Q9BZR6)
T5 sequence: T1 sequence with N211A, A233D

[6] = biological target: T6, human NgR1 alanine mutant 138 (human) (UniProt Q9BZR6)
T6 sequence: T1 sequence with D112A, A230R, A233D, A258E

binding [1]: binds
binding [2]: binds
binding [3]: binds
binding [4]: binds
binding [5]: binds
binding [6]: binds
B1: AP-Nogo-66 (ligand, UniProt Q9NQC3 1055-1120, looked up)
chain: RIYKGVIQAIQKSDEGHPFRAYLESEVAISEELVQKYSNSALGHVNCTIKELRRLFLVDDLVDSLK
notes: domain: Nogo-66; construct described elsewhere (Fournier 2001); also called AP-Ng66; Ng66; not shown: alkaline phosphatase (AP); construct described elsewhere

binding [1]: binds
binding [2]: binds
binding [3]: binds
binding [4]: binds
binding [5]: binds
binding [6]: binds
B2: AP-fused Amino-Nogo fragment B4C (a.a. 950-1018) (ligand)
chain: LLPPDVSALATQAEIESIVKPKVLVKEAEKKLPSDTEKEDRSPSAIFSAELSKTSVVDLLYWRDIKKTG
notes: also called AmNg B4C; AP-B4C; not shown: alkaline phosphatase (AP), vector pcAP6

— patent publication US20090111753A1, “Nogo-A Polypeptide Fragments, Variant Nogo Receptor-1 Polypeptides, and Uses Thereof” (Yale University, priority 2004, published 2009)
